Results are given in words; binding and its absence hold for the method and conditions named. A result given as binding can be weak or reduced; the word gives no strength.
target: T1, BLR08 (Bremia lactucae isolate Bl:24) (UniProt P0CU87); assay: two-hybrid; GAL4 system; effector baits (GAL4-DBD, pDEST32, yeast Y8930) mated with a lettuce cDNA prey library (GAL4-AD, pDEST22, yeast Y8800); diploids selected on Sc-Leu-Trp-His; interactions confirmed by retransformation of bait and prey; only preys found in two or more colonies kept
T1 sequence: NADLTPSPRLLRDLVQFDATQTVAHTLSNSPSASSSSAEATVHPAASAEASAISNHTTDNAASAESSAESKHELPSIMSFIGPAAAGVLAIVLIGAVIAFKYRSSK

| Substance | binding |
| --- | --- |
| LsRTNLB05 (Lactuca sativa cv. Olof) | binds |
| Lsa008464.1 (Lactuca sativa cv. Olof) | binds |
| Lsa040031.1 (Lactuca sativa cv. Olof) | binds |
| Lsa001248.1 (Lactuca sativa cv. Olof) | binds |

target: T2, BLR05 (Bremia lactucae isolate Bl:24) (UniProt P0CU86); assay: as above
T2 sequence: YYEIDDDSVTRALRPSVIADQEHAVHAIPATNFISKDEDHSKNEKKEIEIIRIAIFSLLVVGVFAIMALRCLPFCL

| Substance | binding |
| --- | --- |
| LsRTNLB05 (Lactuca sativa cv. Olof) | binds |
| Lsa008464.1 (Lactuca sativa cv. Olof) | binds |
| Lsa034832.1 (Lactuca sativa cv. Olof) | binds |
| Lsa040031.1 (Lactuca sativa cv. Olof) | binds |
| Lsa039137.1 (Lactuca sativa cv. Olof) | binds |
| Lsa002329.1 (Lactuca sativa cv. Olof) | binds |

target: T3, BLR38 (Bremia lactucae isolate Bl:24); assay: as above
T3 sequence: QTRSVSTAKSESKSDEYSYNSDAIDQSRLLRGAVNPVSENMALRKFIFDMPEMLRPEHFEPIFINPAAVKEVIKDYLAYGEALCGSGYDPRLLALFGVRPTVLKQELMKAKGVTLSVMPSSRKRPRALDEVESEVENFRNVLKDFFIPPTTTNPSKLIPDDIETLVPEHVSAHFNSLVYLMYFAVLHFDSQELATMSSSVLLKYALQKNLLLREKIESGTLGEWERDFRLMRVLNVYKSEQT

| Substance | binding |
| --- | --- |
| Lsa043843.1 (Lactuca sativa cv. Olof) | binds |
| LsFLX-like2 (Lactuca sativa cv. Olof) | binds |

target: T4, BLN03 (Bremia lactucae isolate Bl:24); assay: as above
T4 sequence: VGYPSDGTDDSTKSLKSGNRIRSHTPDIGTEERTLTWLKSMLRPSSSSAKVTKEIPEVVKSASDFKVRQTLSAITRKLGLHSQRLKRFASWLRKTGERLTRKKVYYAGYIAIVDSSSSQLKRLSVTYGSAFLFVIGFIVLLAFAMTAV

| Substance | binding |
| --- | --- |
| LsRTNLB05 (Lactuca sativa cv. Olof) | binds |

target: T5, BLR09 (Bremia lactucae isolate Bl:24) (UniProt P0CU88); assay: as above
T5 sequence: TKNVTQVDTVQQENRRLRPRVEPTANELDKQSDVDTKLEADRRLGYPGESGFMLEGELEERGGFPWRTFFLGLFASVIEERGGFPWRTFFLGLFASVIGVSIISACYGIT

| Substance | binding |
| --- | --- |
| LsRTNLB05 (Lactuca sativa cv. Olof) | binds |
| Lsa008464.1 (Lactuca sativa cv. Olof) | binds |
| Lsa040031.1 (Lactuca sativa cv. Olof) | binds |
| Lsa020711.1 (Lactuca sativa cv. Olof) | binds |
| Lsa033367.1 (Lactuca sativa cv. Olof) | binds |
| Lsa027896.1 (Lactuca sativa cv. Olof) | binds |
| Lsa040900.1 (Lactuca sativa cv. Olof) | binds |

target: T6, BLN04 (Bremia lactucae isolate Bl:24); assay: as above
T6 sequence: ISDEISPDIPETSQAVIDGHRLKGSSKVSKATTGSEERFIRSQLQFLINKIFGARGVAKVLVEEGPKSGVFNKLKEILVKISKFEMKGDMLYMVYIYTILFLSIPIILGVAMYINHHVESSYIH

| Substance | binding |
| --- | --- |
| LsRTNLB05 (Lactuca sativa cv. Olof) | binds |
| Lsa008464.1 (Lactuca sativa cv. Olof) | binds |
| Lsa040031.1 (Lactuca sativa cv. Olof) | binds |

— paper PMC7217486
